Measurements: US11020481B2 (priority 2008, dated 2021)
At least one structure is not confirmed: it was looked up by name or label, or the drawing left a doubt. Some results were stated once for a whole list of compounds, not compound by compound. Some compounds share one range, which may span the group rather than tell each member.

Experiments:
IL-8 [1] = experiment: IL-8 production in TNFα-induced NL20 cells (ELISA); assay type: cell-based, human; details: for IL-8 levels reduced: Example 1, 10 ng/ml TNFα, 48 h, 10 μg/ml and 30 μg/ml
Description: (§1) Am J Physiol Lung Cell Mol Physiol 2007; 292:[…]-352; and Donnarumma G, et al. Anti-inflammatory effects of moxifloxacin and human beta-defensin 2 association in human lung epithelial cell line (A549) stimulated with lipopolysaccharide. Peptides 2007; 28:2286-2292, incorporated by reference in their entireties). […] The effect of antibiotics on cytokine levels was assessed by ELISA assay. […] The day after seeding, cells received normal growth medium without serum for an additional 24 h. […] IL-6 and IL-8 production in NL20 monolayers was induced by treatment with 10 ng/ml of TNFα. […] After 48 h, cell medium was collected, clarified and the amount of IL-6 and IL-8 released into the medium was quantified using QuantiGlo chemiluminescent ELISA kits (R&D Systems, Minneapolis, Minn.). To test the effect of antibiotics on IL-6 and IL-8 secretion, antibiotics were added to culture media along with LPS or TNF-α and processed as described above.

IL-6 [2] = experiment: IL-6 production in LPS-induced HBE135 cells (ELISA); assay type: cell-based, human
Description: as §1

IL-6 [3] = experiment: IL-6 production in LPS-stimulated THP-1 cells (ELISA); assay type: cell-based, human; details: 24 h
IL-8 [4] = experiment: IL-8 production in LPS-induced HBE135 cells (ELISA); assay type: cell-based, human
Description: as §1

IL-8 [5] = experiment: IL-8 production in LPS-stimulated THP-1 cells (ELISA); assay type: cell-based, human; details: 24 h, 100 μg/ml and 300 μg/ml
tonsillar lymphocytes = details: cited from earlier work
IL-6 [6] = experiment: IL-6 production in TNFα-induced NL20 cells (ELISA); assay type: cell-based, human
Description: as §1

RANTES = details: nasal epithelial cells from patients of nasal polyposis; cited from earlier work
TNF-α, IL-1 and IL-8 = details: cited from earlier work
TNFα = TNFα production in LPS-stimulated THP-1 cells (ELISA); assay type: cell-based, human; details: 24 h, 300 μg/ml
[7] = test system: IL-8, IL-6, ERK1/2, MK, and NFKB; details: human lung epithelia cells; antibiotic concentrations less than 50 μg/ml; cited from earlier work
[8] = Example 3, HBE cells induced with LPS, 300 μg/ml
[9] = Example 5, HBE135 cells, 5 μg/ml LPS, 10 or 30 μg/ml
[10] = Example 5, 10 ng/ml TNFα, 10 μg/ml or 30 μg/ml

Row | Compound | IL-8 levels reduced (IL-8 [1]) | IL-6 levels (IL-6 [2]; [8]) | IL-6 levels (IL-6 [2]; [9]) | reducing IL-6 levels (IL-6 [3]; 300 μg/ml) | IL-6 production (IL-6 [3]; increased concentrations (10-300 μg/ml)) | levels of IL-8 (IL-8 [4]; Example 1, HBE135 cells stimulated with LPS, low concentrations (10 μg/ml and 30 μg/ml)) | IL-8 levels (IL-8 [4]; [8]) | IL-8 levels (IL-8 [4]; [9]) | level of IL-8 produced (IL-8 [1]; [10]) | levels of IL-8 (IL-8 [5]) | IL-8 production (tonsillar lymphocytes; 5 mg/L) | TNF-α and IFNy production (tonsillar lymphocytes; 50 mg/L) | change in IL-6 levels (IL-6 [6]; Example 1, 10 ng/ml TNFα, 48 h, 10 μg/ml and 30 μg/ml antibiotic) | level of IL-6 produced (IL-6 [6]; [10]) | RANTES-release (RANTES) | concentration required for inhibitory activity on the production of TNF-α, IL-1 and IL-8 (TNF-α, IL-1 and IL-8) [mg/L] | inhibitory activity on the production of pro-inflammatory factors, versus ciprofloxacin and moxifloxacin (TNF-α, IL-1 and IL-8) | TNFα production (TNFα) | secretion of pro-inflammatory factor such as IL-8, IL-6, ERK1/2, MK, and NFKB [7]
1 | O=C(O)c1cn(C2CC2)c2cc(N3CCNCC3)c(F)cc2c1=O [ciprofloxacin] | 20-30% | – | – | – | – | – | – | – | – | – | – | – | – | – | – | – | – | – | –
2 | C[C@H]1COc2c(N3CCN(C)CC3)c(F)cc3c(=O)c(C(=O)O)cn1c23 [levofloxacin] | 20-30% | reductions | did not significantly change | five-fold | dose-dependent decrease | reduce | reductions | did not significantly change | did not significantly change | significantly decreased | inhibits | inhibits | No significant change | did not significantly change | inhibits | 100 | much lower | increased | –
3 | COc1c(N2C[C@@H]3CCCN[C@@H]3C2)c(F)cc2c(=O)c(C(=O)O)cn(C3CC3)c12 [moxifloxacin] | 20-30% | – | – | – | – | – | – | – | – | – | – | – | – | – | – | – | – | – | can inhibit
